The record followed here is paper PMC10240065.

By UniProt entry, the sequences of proteins in these tests, tags left out.
UniProt P14873: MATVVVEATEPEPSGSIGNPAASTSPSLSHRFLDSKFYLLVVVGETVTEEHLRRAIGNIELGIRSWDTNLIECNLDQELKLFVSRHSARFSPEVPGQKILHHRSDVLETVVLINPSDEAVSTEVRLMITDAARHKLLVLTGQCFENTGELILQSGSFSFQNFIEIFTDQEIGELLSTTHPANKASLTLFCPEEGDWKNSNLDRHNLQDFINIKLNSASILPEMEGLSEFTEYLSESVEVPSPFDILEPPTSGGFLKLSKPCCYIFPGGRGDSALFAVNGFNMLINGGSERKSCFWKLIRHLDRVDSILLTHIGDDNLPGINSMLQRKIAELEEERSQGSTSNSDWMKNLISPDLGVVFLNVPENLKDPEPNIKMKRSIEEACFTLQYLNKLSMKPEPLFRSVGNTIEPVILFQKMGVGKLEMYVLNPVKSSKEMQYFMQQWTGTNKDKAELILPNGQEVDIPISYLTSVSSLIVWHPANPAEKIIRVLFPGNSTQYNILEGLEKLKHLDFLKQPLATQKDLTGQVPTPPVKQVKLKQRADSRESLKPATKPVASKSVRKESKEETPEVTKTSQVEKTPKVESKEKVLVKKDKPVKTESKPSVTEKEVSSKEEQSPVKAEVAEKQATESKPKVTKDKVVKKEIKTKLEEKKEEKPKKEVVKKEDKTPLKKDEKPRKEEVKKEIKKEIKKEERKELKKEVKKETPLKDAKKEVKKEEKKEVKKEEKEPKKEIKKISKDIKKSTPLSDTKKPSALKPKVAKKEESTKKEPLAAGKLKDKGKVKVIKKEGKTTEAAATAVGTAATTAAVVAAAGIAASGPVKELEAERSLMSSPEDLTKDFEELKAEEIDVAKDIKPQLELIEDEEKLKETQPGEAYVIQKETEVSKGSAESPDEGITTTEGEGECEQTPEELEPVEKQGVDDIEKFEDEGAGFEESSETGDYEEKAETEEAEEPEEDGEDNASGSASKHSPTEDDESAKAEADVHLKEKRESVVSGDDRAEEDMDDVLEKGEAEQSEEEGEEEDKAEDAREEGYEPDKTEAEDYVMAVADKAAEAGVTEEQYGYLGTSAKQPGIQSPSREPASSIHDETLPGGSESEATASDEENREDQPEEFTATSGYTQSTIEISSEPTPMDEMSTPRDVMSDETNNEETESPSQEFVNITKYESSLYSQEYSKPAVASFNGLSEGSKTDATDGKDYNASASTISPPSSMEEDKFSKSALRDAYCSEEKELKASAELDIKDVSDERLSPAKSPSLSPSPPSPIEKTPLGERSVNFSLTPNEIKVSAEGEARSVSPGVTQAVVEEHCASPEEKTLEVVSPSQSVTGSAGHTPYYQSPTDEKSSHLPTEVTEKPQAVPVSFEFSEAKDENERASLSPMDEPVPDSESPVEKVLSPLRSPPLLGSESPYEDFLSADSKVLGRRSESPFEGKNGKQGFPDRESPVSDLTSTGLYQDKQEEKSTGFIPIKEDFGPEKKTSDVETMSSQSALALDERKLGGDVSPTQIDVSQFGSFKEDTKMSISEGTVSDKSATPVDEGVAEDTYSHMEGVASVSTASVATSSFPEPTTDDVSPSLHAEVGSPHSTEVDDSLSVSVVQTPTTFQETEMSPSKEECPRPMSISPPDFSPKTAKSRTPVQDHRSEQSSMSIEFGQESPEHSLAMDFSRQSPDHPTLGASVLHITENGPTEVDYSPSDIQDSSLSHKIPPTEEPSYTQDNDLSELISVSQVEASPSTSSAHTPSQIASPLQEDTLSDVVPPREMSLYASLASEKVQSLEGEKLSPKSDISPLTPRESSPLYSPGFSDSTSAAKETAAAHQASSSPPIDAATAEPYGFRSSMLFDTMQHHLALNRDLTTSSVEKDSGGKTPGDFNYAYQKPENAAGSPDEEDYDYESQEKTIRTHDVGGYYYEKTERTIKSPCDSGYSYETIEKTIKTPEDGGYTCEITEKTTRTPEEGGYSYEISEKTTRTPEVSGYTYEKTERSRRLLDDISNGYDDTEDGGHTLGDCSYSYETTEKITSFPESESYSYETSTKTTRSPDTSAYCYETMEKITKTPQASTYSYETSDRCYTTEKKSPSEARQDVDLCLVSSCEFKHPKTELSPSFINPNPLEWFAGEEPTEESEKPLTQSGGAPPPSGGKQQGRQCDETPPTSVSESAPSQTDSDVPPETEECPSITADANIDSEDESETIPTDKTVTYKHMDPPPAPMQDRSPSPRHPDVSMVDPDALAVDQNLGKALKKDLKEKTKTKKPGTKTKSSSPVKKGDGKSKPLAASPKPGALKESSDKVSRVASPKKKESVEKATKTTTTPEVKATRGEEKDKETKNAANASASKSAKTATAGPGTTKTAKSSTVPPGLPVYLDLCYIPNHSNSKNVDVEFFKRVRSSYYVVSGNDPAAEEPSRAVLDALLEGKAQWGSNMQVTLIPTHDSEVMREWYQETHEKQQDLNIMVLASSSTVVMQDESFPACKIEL
UniProt P62137: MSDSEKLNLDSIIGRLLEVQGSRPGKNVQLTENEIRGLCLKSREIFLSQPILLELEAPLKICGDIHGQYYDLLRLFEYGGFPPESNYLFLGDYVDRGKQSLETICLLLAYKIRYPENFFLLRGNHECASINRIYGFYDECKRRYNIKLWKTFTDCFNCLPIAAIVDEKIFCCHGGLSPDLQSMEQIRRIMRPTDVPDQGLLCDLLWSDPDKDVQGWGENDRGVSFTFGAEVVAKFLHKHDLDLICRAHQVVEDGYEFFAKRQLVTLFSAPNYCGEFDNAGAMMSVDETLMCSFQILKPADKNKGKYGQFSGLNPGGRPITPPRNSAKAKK
UniProt P62141: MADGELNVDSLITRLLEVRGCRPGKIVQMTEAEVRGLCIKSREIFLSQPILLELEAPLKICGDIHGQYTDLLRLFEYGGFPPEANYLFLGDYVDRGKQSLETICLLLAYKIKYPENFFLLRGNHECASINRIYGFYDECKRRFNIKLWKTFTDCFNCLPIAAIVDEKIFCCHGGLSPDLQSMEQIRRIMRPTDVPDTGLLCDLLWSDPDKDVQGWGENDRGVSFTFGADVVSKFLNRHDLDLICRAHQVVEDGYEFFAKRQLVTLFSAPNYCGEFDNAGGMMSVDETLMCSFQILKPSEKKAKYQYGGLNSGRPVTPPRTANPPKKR
UniProt P63087: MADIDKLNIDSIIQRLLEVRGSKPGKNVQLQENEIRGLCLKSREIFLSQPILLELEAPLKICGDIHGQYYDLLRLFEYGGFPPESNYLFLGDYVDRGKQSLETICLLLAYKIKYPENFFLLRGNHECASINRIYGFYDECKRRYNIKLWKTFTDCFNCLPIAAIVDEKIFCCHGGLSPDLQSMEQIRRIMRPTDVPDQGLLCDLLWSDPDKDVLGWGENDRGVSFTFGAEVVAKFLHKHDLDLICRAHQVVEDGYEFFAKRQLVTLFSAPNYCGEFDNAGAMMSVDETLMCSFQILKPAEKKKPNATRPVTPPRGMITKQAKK
UniProt Q04207: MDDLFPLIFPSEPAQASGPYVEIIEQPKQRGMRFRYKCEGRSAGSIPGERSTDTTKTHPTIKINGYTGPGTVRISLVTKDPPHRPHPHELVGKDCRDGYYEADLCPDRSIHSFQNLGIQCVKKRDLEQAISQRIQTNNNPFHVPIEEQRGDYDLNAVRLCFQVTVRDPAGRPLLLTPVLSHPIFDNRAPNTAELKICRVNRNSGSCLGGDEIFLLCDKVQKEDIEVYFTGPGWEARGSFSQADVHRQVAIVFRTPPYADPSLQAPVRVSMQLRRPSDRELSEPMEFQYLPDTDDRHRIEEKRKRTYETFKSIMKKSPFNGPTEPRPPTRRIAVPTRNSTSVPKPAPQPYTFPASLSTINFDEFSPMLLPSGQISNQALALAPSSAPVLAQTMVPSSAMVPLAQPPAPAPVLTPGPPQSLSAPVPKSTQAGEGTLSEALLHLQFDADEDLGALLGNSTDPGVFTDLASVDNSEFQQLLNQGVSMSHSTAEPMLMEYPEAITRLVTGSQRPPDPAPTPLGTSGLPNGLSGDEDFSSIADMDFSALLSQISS

In one assay the target is Sptan1-Myc (mouse) (UniProt P16546). As to the kind of experiment: affinity purification with mass spectrometry; Eluents of the Sptan1-Myc pull-down from N2A cells cotransfected with Ppp1ca-Flag, Sptan1-Myc and iASPP or tdTomato; whole cells treated with 2 mM DSP, RIPA lysis, anti-tag antibody, protein G beads; LC-MS/MS with phosphorylation site analysis.
For the next assay, the target named is T1, iASPP-Flag (mouse) (UniProt Q5I1X5).
T1 sequence: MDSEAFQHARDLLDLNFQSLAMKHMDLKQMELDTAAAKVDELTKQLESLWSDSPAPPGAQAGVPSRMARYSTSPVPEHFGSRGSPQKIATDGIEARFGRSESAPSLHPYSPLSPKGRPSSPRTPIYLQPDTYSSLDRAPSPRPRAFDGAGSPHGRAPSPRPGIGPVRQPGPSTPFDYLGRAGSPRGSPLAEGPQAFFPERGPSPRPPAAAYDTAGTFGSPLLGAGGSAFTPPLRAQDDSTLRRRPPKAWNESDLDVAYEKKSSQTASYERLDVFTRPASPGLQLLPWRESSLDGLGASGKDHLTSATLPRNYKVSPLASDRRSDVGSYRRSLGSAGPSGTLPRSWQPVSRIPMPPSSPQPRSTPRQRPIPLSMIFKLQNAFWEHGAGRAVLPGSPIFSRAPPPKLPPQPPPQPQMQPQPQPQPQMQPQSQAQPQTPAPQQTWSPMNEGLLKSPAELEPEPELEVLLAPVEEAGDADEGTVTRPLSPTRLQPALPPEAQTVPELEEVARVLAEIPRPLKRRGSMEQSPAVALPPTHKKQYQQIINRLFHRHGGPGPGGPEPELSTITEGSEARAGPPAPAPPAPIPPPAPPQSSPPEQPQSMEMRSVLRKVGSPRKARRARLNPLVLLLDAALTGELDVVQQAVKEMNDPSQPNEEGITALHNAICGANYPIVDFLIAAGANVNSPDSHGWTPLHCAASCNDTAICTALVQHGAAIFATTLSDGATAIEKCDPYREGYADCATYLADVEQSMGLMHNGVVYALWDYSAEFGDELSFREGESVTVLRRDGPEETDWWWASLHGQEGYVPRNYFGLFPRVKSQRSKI
The experiment in a line: affinity purification with mass spectrometry; N2A cells transfected with iASPP-Flag or the control tdTomato-Flag, neuronal differentiation induced; whole cells treated with 2 mM DSP cross-linker 30 min, RIPA lysis, anti-tag antibody overnight at 4°C, protein G beads; LC-MS/MS of the eluate.

These are yes or no findings as the source states them, for the method shown. In cells and extracts the contact can be indirect. These calls come from enrichment with a bait or labelling near it, and not all partners need be listed. For some assays here: A no says only that the protein was not detected with the bait. For some assays here: Sequences can lack the tags named with a protein.

Turning to “Map1b (endogenous) (from UniProt P14873 1-2464)”, the binding entry with Sptan1-Myc (mouse) is “binds”. “Ppp1ca (from UniProt P62137 1-330) (enzyme)”: the binding entry with iASPP-Flag (mouse) is recorded as “binds”.

For the substance “Ppp1cb (from UniProt P62141 1-327) (enzyme)”, in the assay with iASPP-Flag (mouse), the binding entry is recorded as “binds”. Turning to “Ppp1cc (from UniProt P63087 1-323) (enzyme)”, the binding entry with iASPP-Flag (mouse) was “binds”. On the same count and under the same terms, under RelA/p65 (from UniProt Q04207 1-549) stands “no binding”.
